What is called AC50 is the concentration at which the activity in the assay is half-maximal.

The experiment is described as follows: qHTS Assay for Lipid Storage Modulators in Drosophila S3 Cells.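 For cell number change: cells counted by Cell Tracker Red CMTPX staining in the red channel.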 To be noted: BODIPY lipid droplet fluorescence, 18-24 h; for cell number change: measured here: cell count max response, cells fed with added oleic acid. Summed up: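 Drosophila S3 cells loaded with oleic acid (400 uM, as added) and compounds at several concentrations; lipid droplets imaged by 488-nm laser-scanning cytometry, 500–530 nm intensity and object ratio to cell channel. Percent activity normalized to 20 uM Triacsin C.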

Where [1] appears, read: measured here: cell number channel AC50, cells fed with added oleic acid.
The mark [2] stands for this setting: measured here: lipid fluorescence (Fed channel) AC50, cells fed with added oleic acid.

The list shows a part of the results. These are further read-outs of the screen, such as a control signal, another cell line or another target. No call is given for them. Compounds called inactive in the main read-out are mostly missing here. The note in brackets gives the kind of curve behind each potency; many fits are weak.

Regarding `Cc1cc(C)n(CC(=O)O)c(=O)c1[N+](=O)[O-]`, the cell number change is -51.9%. Further, under setting [1], the half-maximal activity concentration (AC50) is 29.1 µM [falling, single point]. The half-maximal activity concentration (AC50) under setting [2] was 29.1 µM [falling, single point]. In the case of `O=C(O)c1c(C(=O)O)c(-c2ccc(F)cc2)n2c1CCC2`, the cell number change was -19.3%. In addition, the half-maximal activity concentration (AC50) under setting [2] was 20.6 µM [falling, single point]. As for `Cc1ccc(N(CC(=O)Nc2cc(C)ccc2C)S(C)(=O)=O)cc1`, the cell number change was found to be 4.4%. Also, the AC50 under setting [2] is 6.51 µM [rising, single point].

With `CC(C(=O)O)N1C(=O)c2ccccc2C1=O` (centres undefined), the cell number change was 10.8%. For the same compound, the AC50 under setting [2] was 0.146 µM [rising, full curve, poor fit].

Turning to `CCn1nc(C)c(CN2CCc3c([nH]c4ccccc34)C2c2ccc(F)c(OC)c2)c1C` (centres undefined), the cell number change stood at 15.2%. Also, under setting [2], the AC50 is 0.259 µM [rising, full curve, poor fit]. `CN(Cc1ccccc1)S(=O)(=O)c1ccc2c(c1)OCCO2`: the cell number change stood at 1.06%. The half-maximal activity concentration (AC50) under setting [2] is 25.9 µM [rising, partial curve, poor fit]. On to `N#C[C@@H]1N(Cc2ccccc2)C(=O)[C@H]2CC3C=CC21O3` (some centres undefined), for which the cell number change was -8.96%. The half-maximal activity concentration (AC50) under setting [2] is 2.59 µM [rising, full curve, poor fit]. In the case of `COc1cccc(/C=C2\N=C3CCCCCN3C2=O)c1`, the cell number change amounted to 15.6%. Moreover, the AC50 under setting [2] was 6.51 µM [rising, single point]. In the case of `COC(=O)CCCC1=CC2=CC(=O)C(C)(OC(=O)CCc3ccccc3)C(=O)C2=CO1` (centres undefined), the cell number change was determined as 2.98%. For the same compound, under setting [2], the AC50 is 6.51 µM [rising, single point]. As to `CCOC(=O)N1CCC(n2c(SCC(=O)OCc3ccccc3)nc3ccsc3c2=O)CC1`, the cell number change was 1.6%. The concentration at half-maximal activity (AC50) under setting [2] was 1.84 µM [rising, partial curve]. Consider `CCCNC(=O)Nc1ccc2c(c1)N(C)C(=O)c1ccccc1S2`, for which the cell number change amounted to 23%. Moreover, under setting [1], the AC50 was 0.731 µM [falling, full curve, poor fit]. Also, the AC50 under setting [2] was 16.4 µM [falling, partial curve].

Regarding `O=C(CN1CCN(S(=O)(=O)c2ccc(F)c(F)c2)CC1)Nc1ccccc1C(=O)NC1CC1`, the cell number change was 5.19%. With `CCn1c(SCC(=O)c2ccccc2)nc2sc3c(c2c1=O)CCN(C)C3`, the half-maximal activity concentration (AC50) under setting [2] is 0.103 µM [rising, full curve, poor fit]. With `CCOC(=O)C1CCN(C(=O)c2ccc3c(c2)NC(=O)/C(=C\c2cccc(C)c2)S3)CC1`, the cell number change was -25.1%. The AC50 under setting [2] is 2.91 µM [falling, partial curve]. For the compound `Cc1cccc(NS(=O)(=O)c2ccc(C)c(C(=O)N(C)C)c2)c1`, the cell number change is -1.18%. The AC50 under setting [2] is 13 µM [rising, partial curve]. Take `COc1ccccc1C(CC(=O)Nc1ccc(Cl)cc1)c1ccc(OC(C)C)cc1` (centres undefined): the cell number change came out at 32.7%. In addition, the AC50 under setting [1] was 2.31 µM [rising, full curve]. In the case of `CCN1CCN(C2=C(NS(=O)(=O)c3ccccc3)C(=O)c3ccccc3C2=O)CC1`, the cell number change is -10.1%. Regarding `Fc1ccc(Nc2nc(Oc3ccc4c(c3)OCO4)nc(N3CCOCC3)n2)c(F)c1`, the cell number change came to 4%. Moreover, the AC50 under setting [2] was 2.31 µM [rising, single point]. For the compound `COc1ccc(/C(C)=N/Nc2ccc(C(=O)O)cc2)c(OC)c1`, the cell number change stood at 50%. Besides, under setting [1], the half-maximal activity concentration (AC50) is 20.6 µM [rising, single point]. For the compound `CCCOc1ccc(N2C(=O)CC(N(CCCO)C(=O)CC)C2=O)cc1` (centres undefined), the cell number change stood at 4.16%. Consider `Cc1ccc(NS(=O)(=O)c2ccc(Br)s2)nc1`, for which the cell number change is -11.3%. For `COc1ccccc1C(=O)Nc1c(C)cc(Br)cc1C`, the cell number change turned out to be 20.4%. Moreover, the concentration at half-maximal activity (AC50) under setting [2] is 35.5 µM [rising, single point]. Regarding `CC(=O)c1c(C)[nH]c(C(=O)Nc2cccc(C#N)c2)c1C`, the cell number change came out at 10.9%. Further, under setting [2], the concentration at half-maximal activity (AC50) was 14.6 µM [falling, single point]. As to `CC(C)(C)C1CCC(C(=O)OCC(=O)Nc2ccc3[nH]c(=O)[nH]c3c2)CC1` (centres undefined), the cell number change turned out to be 119%. Besides, the AC50 under setting [1] is 20.6 µM [rising, partial curve]. The AC50 under setting [2] was 1.3 µM [rising, partial curve]. With `CC1=N/C(=C/c2ccc([N+](=O)[O-])cc2)C(=O)N1c1ccc(Cl)cc1Cl`, the concentration at half-maximal activity (AC50) under setting [2] was 0.13 µM [rising, full curve, poor fit]. For the compound `COCc1ccc(C(=O)NC2CCCc3c2cnn3-c2cc(C)cc(C)c2)s1` (centres undefined), the cell number change was -53.4%. Further, the AC50 under setting [1] is 0.164 µM [falling, full curve]. The AC50 under setting [2] was 0.0651 µM [falling, full curve]. For `COc1ccccc1C(=O)NCC(c1ccco1)N1CCc2ccccc21` (centres undefined), the cell number change worked out at 18.3%. Take `COc1ccc(OC)c(CNC(=O)c2ccc(C)c(NC(=O)C3=C(C)OCCS3)c2)c1`: under setting [2], the AC50 is 0.58 µM [falling, single point]. With `O=C(CSc1nnc(COc2ccccc2)o1)N1CCCCC1`, the cell number change was found to be 10.5%.

As for `Cc1ccc2c(c1)c1c(n2CCc2ccc(C)nc2)CCN(C)C1`, the cell number change was -1.78%. Moreover, the concentration at half-maximal activity (AC50) under setting [2] is 6.51 µM [rising, single point].

On to `c1ccc(Cc2nc(-c3ccccn3)no2)cc1`, for which the cell number change is -25.6%.

As for `COC(=O)C1=C(C)NC(C)=C(C(=O)OC)C1c1cc2ccc(C)cc2[nH]c1=O`, the cell number change is -11.9%. Regarding `Cc1cc(-c2nnc3n2N=C(C(C)(C)C)CS3)n[nH]1`, the cell number change is -3.59%. In addition, the AC50 under setting [2] is 3.66 µM [falling, single point]. Regarding `O=C(Nc1nccs1)c1cc2c(s1)CCCCC2`, the cell number change was -9.22%. Besides, the half-maximal activity concentration (AC50) under setting [2] was 7.31 µM [rising, single point]. Turning to `Cc1c(CCOC(=O)CC23CC4CC(CC(C)(C4)C2)C3)sc[n+]1Cc1ccc([N+](=O)[O-])cc1`, the cell number change is -43.7%. Moreover, the AC50 under setting [1] is 18.4 µM [falling, single point]. The AC50 under setting [2] was 18.4 µM [falling, partial curve]. As to `Cc1ccc(NC(=O)c2cc(CC(C)C)nc3ccccc23)cc1`, the cell number change is 18%. For the same compound, the AC50 under setting [2] is 0.651 µM [rising, full curve]. In the case of `Cc1onc(-c2ccccc2Cl)c1C(=O)N1CCN(c2ncccn2)CC1`, the cell number change was 5.97%. The AC50 under setting [2] was 0.146 µM [falling, full curve, poor fit]. In the case of `CC(=O)Nc1ccc(S(=O)(=O)Oc2ccc(/C=N/NC(=O)c3ccc(Cl)cc3)cc2)cc1`, the cell number change was -21.7%. Further, the AC50 under setting [2] was 18.4 µM [falling, single point]. As to `COc1ccc(NC(=O)CN(c2ccc([N+](=O)[O-])cc2)S(=O)(=O)c2ccccc2)cc1`, the cell number change is -40.3%. Under setting [1], the concentration at half-maximal activity (AC50) was 4.61 µM [falling, full curve, poor fit]. On to `CCc1cc(=O)oc2cc(C)cc(OC(C)C(=O)NCCCn3ccnc3)c12` (centres undefined), for which the cell number change worked out at 12.9%. Also, the half-maximal activity concentration (AC50) under setting [2] was 0.731 µM [falling, partial curve, poor fit].

The record behind these values is PubChem BioAssay AID2685 (National Center for Advancing Translational Sciences (NCATS), 2010).
